Article PMC8274477
These are yes or no findings as the source states them, for the method shown. Some binding calls cover weakened binding; strength is not graded here.

Sequences of proteins named here, by UniProt entry; tags and fusion partners are left off.
UniProt Q15427: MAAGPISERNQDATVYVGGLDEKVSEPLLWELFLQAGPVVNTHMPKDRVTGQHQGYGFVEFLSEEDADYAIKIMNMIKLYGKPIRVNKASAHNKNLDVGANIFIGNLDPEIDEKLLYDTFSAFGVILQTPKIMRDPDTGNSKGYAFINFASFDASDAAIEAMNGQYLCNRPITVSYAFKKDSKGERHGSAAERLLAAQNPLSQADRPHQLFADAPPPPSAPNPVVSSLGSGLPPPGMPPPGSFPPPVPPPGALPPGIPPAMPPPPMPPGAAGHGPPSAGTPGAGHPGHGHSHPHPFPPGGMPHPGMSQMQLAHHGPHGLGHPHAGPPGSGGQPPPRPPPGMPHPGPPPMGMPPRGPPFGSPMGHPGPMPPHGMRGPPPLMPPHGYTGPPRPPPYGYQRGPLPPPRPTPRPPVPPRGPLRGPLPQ

Tests used:
Test in all cases: peptide or protein array; HuProt human proteome microarray; 5 ug/5 ml biotin-labelled LUBAC or OTULIN in solution, 1 h at room temperature; Cy5-streptavidin, scanned at 635 nm; BSA as negative control; hits: Z-score >= 3 and I_(Mean_Ratio) >= 1.4; both purified
COASY (human) = molecular target: T1, COASY (human) (UniProt Q13057)
T1 sequence: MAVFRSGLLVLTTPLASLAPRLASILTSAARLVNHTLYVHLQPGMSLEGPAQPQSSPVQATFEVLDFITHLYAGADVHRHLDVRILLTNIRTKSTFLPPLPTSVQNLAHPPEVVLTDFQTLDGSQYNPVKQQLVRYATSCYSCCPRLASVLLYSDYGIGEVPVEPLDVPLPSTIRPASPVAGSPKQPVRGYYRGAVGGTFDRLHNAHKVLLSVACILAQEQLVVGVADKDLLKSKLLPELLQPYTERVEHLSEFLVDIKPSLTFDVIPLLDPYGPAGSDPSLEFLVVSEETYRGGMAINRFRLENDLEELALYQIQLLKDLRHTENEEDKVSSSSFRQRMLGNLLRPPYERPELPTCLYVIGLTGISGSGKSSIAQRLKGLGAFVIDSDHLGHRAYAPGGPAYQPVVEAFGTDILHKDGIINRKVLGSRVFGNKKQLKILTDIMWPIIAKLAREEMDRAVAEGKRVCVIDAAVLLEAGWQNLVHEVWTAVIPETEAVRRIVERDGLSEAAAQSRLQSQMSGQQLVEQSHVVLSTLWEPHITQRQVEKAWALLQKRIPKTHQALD

DNALI1 (human) = molecular target: T2, DNALI1 (human) (UniProt O14645)
T2 sequence: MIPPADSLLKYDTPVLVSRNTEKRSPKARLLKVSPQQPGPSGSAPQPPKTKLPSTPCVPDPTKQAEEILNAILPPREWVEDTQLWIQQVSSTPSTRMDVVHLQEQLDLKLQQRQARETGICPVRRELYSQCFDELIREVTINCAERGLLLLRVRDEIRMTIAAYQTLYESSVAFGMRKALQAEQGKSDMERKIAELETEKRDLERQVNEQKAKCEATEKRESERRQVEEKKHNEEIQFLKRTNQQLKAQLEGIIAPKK

DTX2 (human) = molecular target: T3, DTX2 (human) (UniProt Q86UW9)
T3 sequence: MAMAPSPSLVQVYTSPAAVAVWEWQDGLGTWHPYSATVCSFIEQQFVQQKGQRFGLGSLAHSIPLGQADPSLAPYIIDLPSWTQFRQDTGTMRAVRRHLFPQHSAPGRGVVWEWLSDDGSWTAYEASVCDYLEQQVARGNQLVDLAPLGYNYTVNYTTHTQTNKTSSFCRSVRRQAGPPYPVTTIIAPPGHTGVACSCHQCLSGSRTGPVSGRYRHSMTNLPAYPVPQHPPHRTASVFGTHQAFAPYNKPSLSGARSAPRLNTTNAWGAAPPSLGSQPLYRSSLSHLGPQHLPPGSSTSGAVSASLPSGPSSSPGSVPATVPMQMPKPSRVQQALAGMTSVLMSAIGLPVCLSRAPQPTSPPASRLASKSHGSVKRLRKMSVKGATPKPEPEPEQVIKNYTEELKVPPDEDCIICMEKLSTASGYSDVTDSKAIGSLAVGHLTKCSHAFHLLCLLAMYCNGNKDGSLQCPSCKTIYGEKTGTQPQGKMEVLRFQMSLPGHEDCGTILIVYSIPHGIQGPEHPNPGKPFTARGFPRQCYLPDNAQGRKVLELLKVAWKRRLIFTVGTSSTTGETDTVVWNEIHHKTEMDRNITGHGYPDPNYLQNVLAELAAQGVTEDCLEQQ

SF3B4 (human) = SF3B4 (human) (UniProt Q15427)
TCF7L1 (human) = molecular target: T4, TCF7L1 (human) (UniProt Q9HCS4)
T4 sequence: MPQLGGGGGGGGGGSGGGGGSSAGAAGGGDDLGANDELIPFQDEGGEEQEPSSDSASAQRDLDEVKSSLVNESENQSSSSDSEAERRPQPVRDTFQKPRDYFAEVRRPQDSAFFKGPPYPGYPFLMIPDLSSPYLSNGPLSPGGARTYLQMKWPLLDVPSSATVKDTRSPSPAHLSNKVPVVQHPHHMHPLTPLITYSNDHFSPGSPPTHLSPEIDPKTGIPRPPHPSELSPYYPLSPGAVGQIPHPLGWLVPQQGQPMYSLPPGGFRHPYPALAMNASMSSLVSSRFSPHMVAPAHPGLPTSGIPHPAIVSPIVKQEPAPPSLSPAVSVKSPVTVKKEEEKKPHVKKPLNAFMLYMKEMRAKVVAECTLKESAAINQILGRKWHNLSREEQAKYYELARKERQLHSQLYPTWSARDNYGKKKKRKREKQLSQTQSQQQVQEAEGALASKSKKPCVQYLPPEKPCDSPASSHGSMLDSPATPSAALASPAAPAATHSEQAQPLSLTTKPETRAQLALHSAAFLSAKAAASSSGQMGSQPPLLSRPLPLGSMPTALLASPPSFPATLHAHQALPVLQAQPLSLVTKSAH

- binding (COASY (human)): binds
- binding (DNALI1 (human)): binds
- binding (DTX2 (human)): binds
- binding (SF3B4 (human)): binds
- binding (TCF7L1 (human)): binds
Substance: linear ubiquitin chain assembly complex (LUBAC), purified as HIS-tagged HOIP with the subunit HOIL-1, biotin-labelled (from UniProt Q96EP0 1-1072; Q9BYM8 1-510)
